Literature values, collected in patent US20080161337A1 (priority 2007, published 2008).
At least one structure is not confirmed: it was looked up by name or label, or the drawing left a doubt.

What was measured:
[1] = tested on: SIBO; details: 21 patients with SIBO; rifaximin seven days at 1200 mg/day
[2] = tested on: SIBO; details: antibiotics traditionally recommended for treating SIBO

| Compound | patients with normalized LBT [1] [%] | clinical efficacy for treating SIBO [2] [%] |
| --- | --- | --- |
| CN(C)[C@@H]1C(O)=C(C(N)=O)C(=O)[C@@]2(O)C(O)=C3C(=O)c4c(O)ccc(Cl)c4[C@@](C)(O)[C@H]3C[C@@H]12 [chlortetracycline] | 27 |  |
| C[C@H]1c2cccc(O)c2C(=O)C2=C(O)[C@]3(O)C(=O)C(C(N)=O)=C(O)[C@@H](N(C)C)[C@@H]3[C@@H](O)[C@@H]21 [doxycycline] |  | 40 |
